Measurements: US20200404909A1, “Fatty acid derivatives for use as herbicides” (Clariant International Ltd., priority 2018, published 2020)
Some entries share one result that the patent states for a list of compounds.

test system: monocotyledonous and dicotyledonous harmful plants (ABUTH, ALOMY, AMARE, DIGSA, ERICA, LOLPE, SOLNI, VIOAR); experiment: Greenhouse trials, post emergence herbicidal activity (percent control); format: in vivo; conditions: visual percent control vs untreated plants
From the text: Standard post emergence herbicide application procedures were used, as described below, to apply inventive compounds and formulations listed in the tables 1 and 2, as well as the reference materials.
Seed of monocotyledonous and dicotyledonous harmful plants such as Abutilon theophrasti (ABUTH), Alopecurus myosuroides (ALOMY), Amaranthus retroflexus (AMARE), Digitaria Sanguinalis (DIGSA), Erigeron canadensis (ERICA), Lolium perenne (LOLPE), Solanun nigrum (SOLNI), Viola arvensis (VIOAR) were sowed in 18 cm^2 pots. The plants were placed in a greenhouse under controlled environmental conditions, and sub-irrigation. About one week after emergence, seedlings were thinned as needed, including removal of any unhealthy or abnormal plants, to create a uniform series of test pots.
The plants were maintained for the duration of the test in the greenhouse, where they received a mean of 70 μmol m^−2 s^−1 of light per day/night. Temperatures averages about 24° C. during the day and about 20° C. during the night. Plants were sub-irrigated throughout the test to ensure adequate soil moisture levels.
Pots were assigned to different treatment in a randomized experimental design. A set of pots was left untreated as a reference against which effects of the treatments could later be evaluated. Applications of tested formulations were made in a spray cabin model SPK B CT02 designed by CheckTec using the following parameters: • nozzle Lechler LU-120-08, 1000 L/ha, 3 bars, 0.56 m/s • nozzle Lechler LU-120-06, 500 L/ha, 3 bars, 0.7 m/s.
The distance of the nozzle from the plants was between 50 to 53 cms.
After treatment, pots were returned to the greenhouse until ready for evaluation (6 hours after treatment (6HAT), 1 day after treatment (1DAT), and 2 days after treatment (2DAT).
For evaluation of herbicidal effectiveness, all plants in the test were examined by a single technician, who recorded percent control, a visual measurement of the effectiveness of each treatment by comparison with untreated plants. […] The reported % control values represent the average for all replicates of each treatment.

Question: Which “effectiveness against weeds (Control)” value does the source give for `CCCCCCCCC(=O)OCCOCCOCCOCCOCCOCCOC` [A1, Pelargonic acid 6 EO ester methyl ether] here?
Answer: Highly effective (70-100%)

Question: How did the “effectiveness against weeds (Control)” value turn out when `CCCCCCCCC(=O)OCCOCCOCCOCCOCCOCCOCCOCCOC` [A2, Pelargonic acid 8 EO ester methyl ether] was run?
Answer: Effective (50-69.9%)

Question: For `CCCCCCCCCCOCCOCCOCCOCCOCCOC(=O)CCCCCCCC` [A9, Pelargonic acid 5 EO ester decyl ether], which “effectiveness against weeds (Control)” value is on record?
Answer: Effective (50-69.9%)

Question: How did the “effectiveness against weeds (Control)” value turn out when `CCCCCCCCC(=O)OCCOCCOCCOCCCCCC` [A10, Pelargonic acid 3 EO ester hexyl ether] was run?
Answer: Effective (50-69.9%)

Question: How did the “effectiveness against weeds (Control)” value turn out when `CCCCCCCCCCC(=O)OCCOCCOCCOCCOCCOCCOC` [A15, Undecanoic acid 6 EO ester methyl ether] was run?
Answer: Moderately effective (20-49.9%)
